Measurements as given in PubChem BioAssay AID2685 (National Center for Advancing Translational Sciences (NCATS), 2010).
“And” between values parts separate entries of the source, which are not always exact repeats. Equal entries are not always repeated. Some of the results follow. These are further read-outs of the screen, such as a control signal, another cell line or another target. No call is given for them. The list favours compounds with an active or inconclusive main result. Words in brackets tell the shape of the fitted curve; partial curves, single points and poor fits give uncertain potencies.

Test: qHTS Assay for Lipid Storage Modulators in Drosophila S3 Cells;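 as to cell number change: cells counted by Cell Tracker Red CMTPX staining in the red channel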
Conditions: BODIPY lipid droplet fluorescence, 18-24 h; for cell number change: measured here: cell count max response, cells fed with added oleic acid
In short: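 Laser-scanning cytometry quantifies lipid droplet accumulation (500–530 nm total intensity; droplet/cell object ratio) in oleic acid-fed (400 uM added) Drosophila S3 cells treated with a concentration series. 20 uM Triacsin C defined 100% inhibition.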

[1] = measured here: lipid fluorescence (Fed channel) AC50, cells fed with added oleic acid
[2] = measured here: cell number channel AC50, cells fed with added oleic acid

SMILES	cell number change [%]	AC50 [1]	AC50 [2]
CCS(=O)(=O)N1CCC(NC(=O)c2ccco2)CC1	-3.5	4.61 µM [falling, full curve]	
COc1ccc(CCNC(=O)CN2C(=O)c3ccccc3S2(=O)=O)cc1OC		2.91 µM [falling, partial curve]	
Nn1c(SCc2cccc(Br)c2)nnc1-c1cccnc1	7.37	6.51 µM [rising, single point]	
COc1cc(OC)nc(S(C)(=O)=O)n1	-27.6	9.2 µM [falling, partial curve, poor fit]	
COc1cc(NC(=O)/C=C/c2ccccc2)c(C(=O)O)cc1OC	25.1		0.82 µM [rising, full curve, poor fit]
O=C(Nc1cccc(Cl)c1)Nc1nnc(CSCCOc2ccc(Cl)cc2)s1	-39		29.1 µM [falling, single point]
Cc1ccc2nc(-c3ccccn3)cc(C(=O)Nc3ccc(S(=O)(=O)N4CCOCC4)cc3)c2c1	32.8	0.326 µM [falling, single point]	
CCn1ncc(Br)c1C(=O)Nc1ccccc1C(F)(F)F		0.58 µM [rising, single point]	
CCOc1ccc(NC(=O)C2CCC(CNc3c(N4CCOCC4)c(=O)c3=O)CC2)cc1 (stereo unspecified)	-31.8	4.61 µM [falling, partial curve]	0.00461 µM [falling, full curve, poor fit]
COc1ccc(NC(=O)CCSc2nc(C)cs2)cc1	-1.57	29.1 µM [rising, single point]	
Cc1ccccc1NS(=O)(=O)c1ccc(C(=O)N2CCN(c3ccccc3O)CC2)cc1	-40.1	35.5 µM [falling, single point]	22.4 µM [falling, single point]
Cc1ccc2nc(N(CCN(C)C)C(=O)/C=C/c3cccs3)sc2c1	-7.45	6.51 µM [rising, single point]	
O=C(CC1CC2CCC1C2)N1CCN(S(=O)(=O)c2ccccc2C(F)(F)F)CC1 (stereo unspecified)	-72.2	0.0461 µM [falling, full curve]	18.4 µM [falling, partial curve]
CCOC(=O)c1[nH]c2ccccc2c1NC(=S)Nc1cccc(C)c1C	-1.84	20.6 µM [rising, single point]	
CC(=O)CSc1nnc(NC(=O)CCc2ccccc2)s1	-7.8	0.731 µM [rising, full curve]	0.13 µM [falling, full curve, poor fit]
O=C(NC(=S)Nc1ccc(O)cc1)C1CCCC1	5.04	11.6 µM [rising, partial curve, poor fit]	
COc1ccccc1N1CCN(C(=O)CCCCCn2c(=O)[nH]c3ccsc3c2=O)CC1	31.9	29.1 µM [rising, single point]	29.1 µM [rising, single point]
CCN1CCN(c2oc(-c3ccccc3C)nc2S(=O)(=O)c2ccccc2)CC1	-31.3		0.0058 µM [falling, full curve, poor fit]
CCOc1ccc(OCC)c(NC(=O)C2CCN(c3ncccn3)CC2)c1	9.71	32.6 µM [rising, partial curve, poor fit]	
c1coc(Cn2c(SCc3nc4ccccc4[nH]3)nnc2-c2cccs2)c1	0.641	7.31 µM [rising, partial curve]	
CCN=C1SC(CC(=O)Nc2ccc(C(F)(F)F)cc2)C(=O)N1CC (stereo unspecified)	-32.5	29.1 µM [falling, single point]	20.6 µM [falling, single point]
Oc1ccc2ccccc2c1C=Nc1ccccc1	-1.23		
COC(=O)c1cc(C(=O)Nc2ccc(C)cn2)cc([N+](=O)[O-])c1		3.66 µM [rising, partial curve, poor fit]	
Cc1ccccc1NC(=O)CCN1C(=O)c2ccccc2C1=O	-11		
O=C(COC(=O)C1CCN(c2ccc(C(F)(F)F)cn2)CC1)NCc1ccc(F)cc1	14.5		
Cc1ccc2c(c1)N(C(C)C(=O)NCc1ccccn1)C(=O)CO2 (stereo unspecified)	5.02		1.16 µM [rising, full curve, poor fit]
O=C(c1cccc(F)c1)N1CCCN(C(=O)c2cccc(F)c2)CC1	2.91	0.82 µM [falling, single point]	
CN(C)CCCN(C(=O)c1sc2ccccc2c1Cl)c1nc2ccc(F)cc2s1	-34.3	0.651 µM [falling, partial curve, poor fit]	32.6 µM [falling, single point]

Three compounds drawn at random from the list so far:
SMILES	cell number change [%]	AC50 [1]	AC50 [2]
CCOC(=O)c1[nH]c2ccccc2c1NC(=S)Nc1cccc(C)c1C	-1.84	20.6 µM [rising, single point]	
COC(=O)c1cc(C(=O)Nc2ccc(C)cn2)cc([N+](=O)[O-])c1		3.66 µM [rising, partial curve, poor fit]	
O=C(COC(=O)C1CCN(c2ccc(C(F)(F)F)cn2)CC1)NCc1ccc(F)cc1	14.5		

The list continues:

SMILES	cell number change [%]	AC50 [1]	AC50 [2]
N#C/C(=C\c1ccc(F)cc1)C(=O)Nc1ccccn1	-11.3	1.84 µM [falling, partial curve, poor fit]	
Cc1ccc(NC2=CC(=O)CCC2)cc1C	48	0.58 µM [falling, single point]	2.31 µM [rising, full curve]
COCCSc1ccccc1C(=O)Nc1ccccc1C#N	18.6		
C=CCn1cnc2c(c1=O)c1nc3ccccc3nc1n2/N=C/c1cccc(OC)c1	24.2	0.259 µM [rising, full curve]	0.092 µM [rising, full curve, poor fit]
Cc1ccccc1N(C(=O)c1ccccn1)C(C(=O)NCc1ccccc1)c1ccncc1 (stereo unspecified)	12.4		
CCN(C(=O)COC(=O)c1ccc(=O)n(Cc2ccccc2)n1)C1CCCCC1	-5.58	0.0058 µM [falling, full curve, poor fit]	
CCOc1cc(N2CCOCC2)c(OCC)cc1NC(=O)CCS(=O)(=O)c1ccc(Cl)cc1	-5.67	0.058 µM [rising, full curve]	
COc1ccc(-c2cc(OC(=O)c3ccc(F)cc3)c3c(C)oc(C)c3c(=O)c2)cc1	6.93	29.1 µM [falling, single point]	
O=C(c1ccco1)N1N=C(c2ccc(Br)cc2)CC1c1ccco1 (stereo unspecified)	-17.9	6.51 µM [rising, partial curve, poor fit]	
CC(=O)OCC(=O)[C@@]12OC(C)(C)O[C@@H]1CC1C3C[C@H](F)C4=CC(=O)C=CC4(C)[C@@]3(F)C(O)CC12C (stereo partly specified)	28.4	0.651 µM [rising, full curve, poor fit]	
CCOc1ccc(-c2noc(CCC(=O)NCCc3ccccc3)n2)cc1OC	-23.6	32.6 µM [falling, single point]	
N=c1c2c(-c3ccccc3)c(-c3ccccc3)n(Cc3ccco3)c2ncn1CCCN1CCOCC1	-5.2	6.51 µM [rising, single point]	
O=C(NCc1ccc(Cl)cc1)c1cc2c(nc3sccn32)s1	-7.64	3.26 µM [rising, single point]	
COc1ccccc1NC(=S)NNC(=O)c1cc(C)n(C)n1	83.9	1.3 µM [rising, full curve]	1.03 µM [rising, full curve]
COc1ccc(OCC(=O)Nc2ccc(N3CCOCC3)c(Cl)c2)cc1	114		18.4 µM [rising, single point]
COc1ccc(OCc2n(CC(=O)OC3CC(C)CCC3C(C)C)c3ccccc3[n+]2C)cc1 (stereo unspecified)	-62.2	23.1 µM [falling, partial curve]	8.2 µM [falling, partial curve, poor fit]
Cn1c(=O)n(Cc2ccccc2F)c(=O)c2c1nc1n2CCCN1CCc1ccccc1	69.4	2.06 µM [rising, partial curve]	29.1 µM [rising, single point]
CCOc1cccc(C(=O)N2CCCCC2c2cccnc2)c1 (stereo unspecified)		0.13 µM [rising, full curve, poor fit]	
CCN(CC)c1ccc(NC(=O)CN2C(=O)CSc3ncccc32)c(C)c1	-79.2	10.3 µM [falling, partial curve]	14.6 µM [falling, partial curve]
COc1ccc(OC)c(/C=C2\SC(=S)N(NS(=O)(=O)c3ccc(C)cc3)C2=O)c1	-16.1	5.17 µM [falling, full curve, poor fit]	
O=c1cc(CSc2ccc(Cl)cc2)nc(-c2ccccn2)[nH]1	-27.2	18.4 µM [falling, single point]	
COCCCC/C(=N\OCCN)c1ccc(C(F)(F)F)cc1		920 nM [falling, full curve, poor fit] and 29.1 µM [rising, single point]	32.6 µM [rising, single point]
COc1ccc(-c2noc(CCN3C(=O)c4ccccc4C3=O)n2)cc1OC		1.84 µM [rising, partial curve]	1.84 µM [rising, partial curve]
COc1ccccc1OCCCCNCCO	5	3.66 µM [falling, full curve]	
CCOC(=O)C1CCCN(C(=O)CN(c2ccc(OC)cc2)S(=O)(=O)c2c(C)noc2C)C1 (stereo unspecified)	35.9	20.6 µM [rising, single point]	11.6 µM [rising, single point]
CCCC(c1nnnn1Cc1cccs1)N1CCN(C2CCCC2)CC1 (stereo unspecified)	12.1	4.61 µM [falling, single point]	
CC1=NN(C(N)=S)C(=O)C1N=Nc1ccc(C)c(Br)c1 (stereo unspecified)	-61.5	1.46 µM [falling, partial curve]	1.64 µM [falling, partial curve, poor fit]

One compound at a time, from the list above.
Oc1ccc2ccccc2c1C=Nc1ccccc1 is entered as cell number change [%]: -1.23
CCn1ncc(Br)c1C(=O)Nc1ccccc1C(F)(F)F is entered as AC50 [1]: 0.58 µM [rising, single point]
